Assay results: the supplement of paper PMC10382679
Single values of this set are uncertain.

B1: Rpb7; numbered along this chain (parent)
chain: MFFIKDLSLNITLHPSFFGPRMKQYLKTKLLEEVEGSCTGKFGYILCVLDYDNIDIQRGRILPTDGSAEFNVKYRAVVFKPFKGEVVDGTVVSCSQHGFEVQVGPMKVFVTKHLMPQDLTFNAGSNPPSYQSSEDVITIKSRIRVKIEGCISQVSSIHAIGSIKEDYLGAI

Tests used:
[1] = variants of: B1; experiment: log2 fold change of mutant abundance, UV-irradiated vs unirradiated; higher = more UV resistant (enriched after UV); settings: with Saccharomyces cerevisiae rad7Δ rad26Δ; UV dose (J/m2): 10; genetic background: rad7Δ rad26Δ rpb7Δ + plasmid RPB7 library; outgrowth: 10 cell divisions
Experimental: (§1)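 Error-prone PCR random mutant library of yeast RPB7 (codons 2-171) on a LEU2 plasmid, shuffled into rad7Δ rad26Δ S. cerevisiae (BJ5465 background) with genomic RPB7 deleted. Cells were irradiated with 10 J/m2 UV (254 nm) or left unirradiated and grown for 10 divisions. Plasmid RPB7 amplicons were Illumina-sequenced and per-codon amino-acid counts were compared UV vs no UV with NOISeq (3 repeats, ARSyNseq batch correction). Positive log2FC means enrichment after UV, i.e. UV resistance / derepressed TCR.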

[2] = variants of: B1; experiment: NOISeq theta enrichment statistic, UV-irradiated vs unirradiated (dimensionless); higher = more UV resistant (enriched after UV); settings: with Saccharomyces cerevisiae rad7Δ rad26Δ; UV dose (J/m2): 10; genetic background: rad7Δ rad26Δ rpb7Δ + plasmid RPB7 library; outgrowth: 10 cell divisions
Experimental: as §1

Variant | log2 fold change of mutant abundance [1] | NOISeq theta enrichment statistic [2]
K23M | -0.198 | -0.728
K23N | -0.0353 | -0.107
S156Y | -0.219 | -0.399
S156F | -0.47 | -0.737
S156A | 0.135 | 0.206
I163V | 0.191 | 0.546
G169S | -0.0281 | -0.0805
E85L | -0.287 | -0.251
P63F | -0.00793 | -0.00571
G104V | 0.0502 | 0.21
G104S | 0.0239 | 0.0905
E35Y | -0.324 | -0.222
E35D | -0.0457 | -0.13
E35A | 0.223 | 0.284
A76P | -0.133 | -0.169
A76S | 0.0213 | 0.0562
V108L | 0.0394 | 0.0931
V108C | 0.371 | 0.248
F70R | -0.112 | -0.0978
F70V | 0.0848 | 0.218
H158L | -0.322 | -0.847
S132N | 0.365 | 1.07
K5V | -0.668 | -0.209
F121T | 0.155 | 0.115

Variant | log2 fold change of mutant abundance [1] | NOISeq theta enrichment statistic [2]
L26P | 0.0188 | 0.024
L26H | -1.15 | -0.498
D6R | -0.787 | -0.358
F109S | -0.125 | -0.198
F109R | -0.503 | -0.404
F109V | 0.0334 | 0.256
T64S | -0.00199 | -0.0126
T64V | -0.066 | -0.0471
T64L | 0.289 | 0.214
S37K | 0.336 | 0.217
S37Q | -0.692 | -0.437
L119K | 0.386 | 0.225
L119M | -0.169 | -0.125
S155K | -0.825 | -0.504
F3I | 0.0411 | 0.0982
F3C | -0.0258 | -0.0382
P127T | 0.0551 | 0.214
G59A | -0.141 | -0.184
E33A | -0.212 | -0.23
S16V | -0.0772 | -0.0386
D135V | -0.393 | -1.13
R21C | -0.217 | -0.15
L31Q | -0.704 | -0.355
V72C | 0.243 | 0.202

Variant | log2 fold change of mutant abundance [1] | NOISeq theta enrichment statistic [2]
V72D | -0.0877 | -0.0576
V72G | -0.244 | -0.697
K41S | -0.502 | -0.3
K41I | 0.234 | 0.587
R142C | 0.524 | 0.235
R142W | -0.253 | -0.193
K140L | -0.657 | -0.352
H113D | 1.04 | 1.41
H113K | 0.109 | 0.134
E32R | -0.395 | -0.207
E32V | -0.0395 | -0.117
E32D | -0.00119 | -0.00593
T120A | 0.0309 | 0.133
T138I | -0.175 | -0.324
D65L | 0.608 | 0.391
D65K | -0.158 | -0.124
D65A | 0.112 | 0.193
D65H | 0.0161 | 0.0202
P20Y | 1.86 | 0.649
I147L | 0.155 | 0.185
I147R | -0.118 | -0.0832
I147T | -0.245 | -0.36
Y44F | 0.284 | 0.982
C38W | -0.309 | -0.554

Variant | log2 fold change of mutant abundance [1] | NOISeq theta enrichment statistic [2]
C38G | 0.0197 | 0.0356
V110L | 0.0382 | 0.108
M22V | -0.0745 | -0.227
M22N | -0.347 | -0.181
C94I | 0.0557 | 0.0607
C94D | -0.11 | -0.095
H97M | -0.149 | -0.114
H97K | -0.03 | -0.154
H97E | 0.083 | 0.154
N53V | 0.16 | 0.0819
F99L | 0.0114 | 0.109
F99A | -0.173 | -0.167
F99G | -0.0979 | -0.0824
T111Q | 0.00332 | 0.0043
T111I | 1.33 | 2.43
T111P | 0.266 | 0.636
T111H | 0.373 | 0.239
D166E | -0.318 | -0.626
D166N | -0.199 | -0.214
L62Y | -0.097 | -0.071
L62Q | -0.88 | -0.342
Q57S | -0.231 | -0.117
Q57L | 0.048 | 0.177
M115Q | -0.295 | -0.225

Variant | log2 fold change of mutant abundance [1] | NOISeq theta enrichment statistic [2]
F42V | 0.125 | 0.19
F42H | -0.623 | -0.29
F42C | 0.0658 | 0.112
I151S | -0.0715 | -0.0879
I151A | -1.16 | -0.554
S125K | -0.148 | -0.0804
S125E | 0.118 | 0.079
K73T | 0.202 | 0.153
K73D | -0.195 | -0.949
K146Y | -0.715 | -0.408
K146G | 0.583 | 0.358
K146R | 0.0842 | 0.331
A159S | -0.0288 | -0.0537
A159I | -0.72 | -0.379
G98R | 0.00677 | 0.056
R144E | -0.117 | -0.0784
R144G | 0.0505 | 0.0828
K83H | 0.245 | 0.215
K83Q | 0.0227 | 0.0461
K83P | -0.632 | -0.448

28 entries from above, reformatted:
Variant	log2 fold change of mutant abundance [1]	NOISeq theta enrichment statistic [2]
T111I	1.33	2.43
T111P	0.266	0.636
T111H	0.373	0.239
D166E	-0.318	-0.626
D166N	-0.199	-0.214
L62Y	-0.097	-0.071
L62Q	-0.88	-0.342
Q57L	0.048	0.177
M115Q	-0.295	-0.225
F42V	0.125	0.19
F42H	-0.623	-0.29
F42C	0.0658	0.112
I151S	-0.0715	-0.0879
I151A	-1.16	-0.554
S125E	0.118	0.079
K73T	0.202	0.153
K73D	-0.195	-0.949
K146Y	-0.715	-0.408
K146G	0.583	0.358
K146R	0.0842	0.331
A159S	-0.0288	-0.0537
A159I	-0.72	-0.379
G98R	0.00677	0.056
R144E	-0.117	-0.0784
R144G	0.0505	0.0828
K83H	0.245	0.215
K83Q	0.0227	0.0461
K83P	-0.632	-0.448
